Test results: PubChem BioAssay AID504467 (National Center for Advancing Translational Sciences (NCATS), 2011)
Out of some 330,000 compounds screened, about 7,700 (2.3%) were called active. The shares of active, inactive and inconclusive entries below differ from those in the screen. The call rests on the fitted dose curve; in most records, active means well fitted inhibition curve with a large enough effect; inconclusive means small, poorly fitted or top-dose-only effect, or effect the other way; inactive means flat fitted curve, though single readings scatter. Potencies beside an inconclusive call are fits to weak or partial responses and may not hold up.

experiment: qHTS screen for small molecules that inhibit ELG1-dependent DNA repair in human embryonic kidney (HEK293T) cells expressing luciferase-tagged ELG1; conditions: HEK293T ELG1-luciferase reporter, luminescence, 16 h, DNA damage induced by 5-fluorouridine; series mostly up to 46.1 µM; further: nearly all actives have a fitted effect of over 55% in size
Method in brief: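 HEK293T cells expressing luciferase-tagged ELG1 (2,000/well) received 5-Fluorouridine plus compound or DMSO for 16 hr at 37 °C. Luciferase was read by ONE-Glo luminescence after 30 min at room temperature.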
Potency means the concentration at half of the fitted maximal effect.

Structure (SMILES) | Potency
COc1ccccc1N1CCN(C(=O)CSc2nnc(NC(=O)C3CC3)s2)CC1 | inconclusive: 23.1 µM [inhibitor, partial curve, poor fit]
CN(C)/C=C/C(=O)c1ccc(Cl)cc1 | inconclusive: 29.1 µM [activator, single point]
C#CCOCCOCCOCCNc1nc(N2CCN(C(=O)[C@H]([C@@H](C)CC)n3cc([C@@H](N)Cc4ccc(O)cc4)nn3)CC2)nc(N2CCN(C(=O)[C@H](Cc3cc4ccccc4[nH]3)n3cc([C@@H](N)CC(C)C)nn3)CC2)n1 | inconclusive: 3.16 µM [activator, single point]
Cc1ccc(N2CCN(c3ccc(C)cc3)C2c2ccccn2)cc1 | inconclusive: 29.1 µM [activator, single point]
O=C(N/N=C/c1ccc(OCc2ccccc2)cc1)c1ccco1 | inconclusive: 20.6 µM [activator, partial curve]
CCn1c(SC(C)C(=O)NC2CCCc3ccccc32)nnc1-c1cccs1 (stereo not given) | inconclusive: 18.4 µM [inhibitor, partial curve, poor fit]
Cc1cc(OC(=O)c2ccccc2Cl)cc(=O)n1C | inconclusive: 8.2 µM [inhibitor, single point]
CN1CCN(c2ccc(S(=O)(=O)N3CCCCC3)cc2NC(=O)Cc2c(F)cccc2Cl)CC1 | inactive
COC(=O)c1ccc(OCC2c3cc(OC)c(OC)cc3CCN2C(=O)c2ccco2)cc1 (stereo not given) | inconclusive: 29.1 µM [inhibitor, single point]
O=C(Nc1ccc2c(c1)OCO2)C1CC(=O)N(c2ccc(F)cc2)C1 (stereo not given) | inactive
O=C(NC(=S)NCCN1CCOCC1)c1ccc(F)cc1 | inactive
CN(Cc1ccc(OC(F)F)cc1)C(=O)c1ccc(S(=O)(=O)N(C)c2ccccc2)cc1 | inconclusive: 20.6 µM [inhibitor, single point]
CCCCN(C)CCCNC(=O)c1cc(=O)[nH]c2ccc(S(=O)(=O)N3CCCCC3C)cc12 (stereo not given) | inactive
Cc1ccc(CNC(=O)C2CCN(S(=O)(=O)c3c(C)noc3/C=C/c3ccco3)CC2)cc1 | inconclusive: 10.3 µM [inhibitor, partial curve]
Cc1cccc(C(=O)Nc2sc(-c3ccccc3)cc2C(=O)O)c1 | inconclusive: 9.2 µM [activator, partial curve]
CC1CCCN(c2nc3c(c(=O)n(C)c(=O)n3C)n2CCSc2nc3ccccc3s2)C1 (stereo not given) | inconclusive: 8.2 µM [inhibitor, partial curve]
CC(=O)c1c(C)n(C)c2ccc(O)cc12 | inconclusive: 23.1 µM [inhibitor, partial curve]
O=C(CN(Cc1cccs1)C(=O)CSc1nnc(COc2ccccc2)o1)NC1CCCCC1 | active: 18.4 µM
Cc1ccc(C2/C(=C(/O)c3cnn(-c4ccccc4)c3C)C(=O)C(=O)N2CCN2CCOCC2)o1 (stereo not given) | inconclusive: 9.2 µM [activator, partial curve]
CC(=O)c1cccc(NC(=O)CC2CCCC2)c1 | inconclusive: 5.8 µM [inhibitor, single point]
COC(=O)c1nnn(CC(=O)Nc2cccc(OC)c2)c1C(=O)OC | inconclusive: 29.1 µM [activator, partial curve, poor fit]
CC12CCC(C(=O)N3CCN(C(c4ccccc4)c4ccccc4)CC3)(OC1=O)C2(C)C (stereo not given) | inconclusive: 18.4 µM [inhibitor, single point]

Arranged by formula weight (high to low): some entries from above.
Structure (SMILES) | Potency
Cc1ccc(C2/C(=C(/O)c3cnn(-c4ccccc4)c3C)C(=O)C(=O)N2CCN2CCOCC2)o1 (stereo not given) | inconclusive: 9.2 µM [activator, partial curve]
CCn1c(SC(C)C(=O)NC2CCCc3ccccc32)nnc1-c1cccs1 (stereo not given) | inconclusive: 18.4 µM [inhibitor, partial curve, poor fit]
CN(C)/C=C/C(=O)c1ccc(Cl)cc1 | inconclusive: 29.1 µM [activator, single point]

(cont.)

Structure (SMILES) | Potency
CCc1ccc(CN(C(=O)c2cccs2)C2CCS(=O)(=O)C2)cc1 (stereo not given) | inactive
Cc1noc2ncnc(Oc3ccc(F)cc3)c12 | inconclusive: 29.1 µM [activator, partial curve, poor fit]
CCCCn1c(-c2ccccc2)cnc1SCC(=O)NCCc1ccc(OC)c(OC)c1 | inconclusive: 2.91 µM [activator, full curve]
CCOC(=O)c1cnc2c(Cl)cc(Cl)cc2c1NCCCN1CCOCC1 | inconclusive: 11.2 µM [inhibitor, partial curve, poor fit]
COc1ccc(NC(=O)CCSc2ccc(F)cc2)cc1 | inconclusive: 20.6 µM [activator, partial curve]
CC(C)c1ccccc1NC(=S)NC(C)c1ccccc1 (stereo not given) | inactive
O=C(NCCc1ccccc1)C1CCC(CNS(=O)(=O)c2ccc(F)cc2)CC1 (stereo not given) | inconclusive: 20.6 µM [activator, single point]
Cc1c(O)ccc(C(=O)CN2CCN(Cc3ccccc3)CC2)c1O | inactive
Cc1ccc(CNC(=O)C2CCCN2S(=O)(=O)c2ccc(Cl)cc2)cc1 (stereo not given) | inactive
Oc1ccc(/C=N/Nc2nc(-c3ccccc3F)nc3ccccc23)c(O)c1 | active: 14.6 µM
O=C(c1ccc2nc[nH]c2c1)N1CCN(c2ncc(C(F)(F)F)cc2Cl)CC1 | inconclusive: 16.4 µM [inhibitor, partial curve, poor fit]
CCN(C[C@H]1N[C@@](CC)(C(=O)OC)[C@H]2C(=O)N(Cc3ccccc3)C(=O)[C@@H]12)C(=O)Nc1ccc(Cl)cc1 | inactive
COc1ccc(/C=C/C(=O)Nc2cccc(S(=O)(=O)NC3=NCCCCC3)c2)cc1OC | inconclusive: 29.1 µM [inhibitor, single point]
CCC1=C(OC(=O)N(CC)CC)N2C(=O)OC(=NCC3CC3)[C@]2(C)[C@H]2C1=CC[C@H]1C(=O)N(CC(=O)OC)C(=O)[C@H]12 | inconclusive: 10.3 µM [activator, partial curve, poor fit]
Clc1ccc(Cc2nnc(-c3cccs3)o2)cc1 | inconclusive: 20.6 µM [activator, partial curve]
CCOC(=O)N1CCN(C(=O)/C(=C\c2ccc(SC)cc2)NC(=O)c2ccccc2)CC1 | inconclusive: 29.1 µM [inhibitor, single point]
O=C(Nc1nncs1)c1cc2c(s1)CCC2 | inconclusive: 3.26 µM [activator, partial curve]
COc1ccc(CN2C(=O)c3oc4ccccc4c(=O)c3C2c2ccc(O)c(OC)c2)cc1 (stereo not given) | inconclusive: 8.2 µM [inhibitor, partial curve, poor fit]
CCOC(=O)C1=C(C)Nc2sc(C(=O)c3ccc(OC)cc3)c(N)c2C1c1ccc(C(=O)OC)cc1 (stereo not given) | inconclusive: 5.8 µM [inhibitor, full curve]
Nc1c(C(=O)c2ccccc2)sc2c1c(=O)[nH]c(=O)n2-c1ccccc1 | inconclusive: 29.1 µM [inhibitor, single point]
Cc1csc(NC(=O)/C=C/c2ccc(C)o2)n1 | inconclusive: 4.61 µM [activator, full curve]
CCCCNc1nc2c(c(=O)n(C)c(=O)n2C)n1CCC | inactive

Structure (SMILES) | Potency
Cc1ccc(-c2cc(C(F)F)nc(S(C)(=O)=O)n2)cc1 | inconclusive: 16.4 µM [activator, single point]
COc1ccc(/C=N/NC(=O)CNC(=O)c2cccs2)cc1 | inactive
CCN(CC)S(=O)(=O)c1cc(NC(=O)CNc2c(C)n(C)n(-c3ccccc3)c2=O)ccc1C | inactive
Cc1ccsc1/C=N/Nc1ccc(Cl)nn1 | inconclusive: 6.51 µM [activator, partial curve, poor fit]
O=C1/C(=C/c2ccc(N3CCOCC3)o2)SC(=Nc2ccccc2)N1CCc1c[nH]c2ccccc12 | inconclusive: 29.1 µM [inhibitor, single point]
CN(C)S(=O)(=O)N(CC(=O)N1CCN(c2ccccc2F)CC1)c1ccccc1 | inactive
COc1ccc(C2CC(=O)c3ccccc3O2)cc1 (stereo not given) | inconclusive: 20.6 µM [activator, partial curve]
O=C(CC12CC3CC(CC(C3)C1)C2)NCO | inconclusive: 16.4 µM [activator, partial curve, poor fit]
O=C(c1cc([N+](=O)[O-])ccc1N1CCOCC1)N1CCN(c2ccccc2)CC1 | inconclusive: 0.651 µM [inhibitor, single point]
COc1ccc(C(=O)Nc2nnc(C(F)(F)F)s2)cc1 | inconclusive: 2.31 µM [activator, partial curve]
Cn1c(N)c(C(=O)COC(=O)CNC(=O)c2ccccc2)c(=O)n(C)c1=O | inconclusive: 20.6 µM [activator, single point]
C=CC[C@@H](CC(=O)NCCO)C(=O)N[C@@H](C)COC(=O)[C@H](CC=C)CC(=O)OC(C)(C)C | inactive
CCNc1nc(=S)nc(NCc2ccccc2)[nH]1 | inactive
O=C(Oc1c(-c2ccccc2)c(=O)n2c3c(cccc13)CC2)c1ccccc1 | inconclusive: 2.59 µM [activator, full curve]
COc1ccc(/C=N/NC(=O)c2c(Br)cnn2C)c2ccccc12 | inactive
COc1ccc(C(=O)/C=C/Nc2cc(C)on2)c(OC)c1 | inconclusive: 18.4 µM [activator, partial curve]
O=C(Nc1ccc(NC(=O)c2ccccc2Cl)nc1)c1ccncc1 | inconclusive: 23.1 µM [inhibitor, single point]
CCOc1ccc(OCCNC2CCCC2)cc1 | inactive
CCOC(=O)c1[nH]c2cc3c(cc2c1NC(=O)CN1CCc2ccccc2C1)OCO3 | inconclusive: 16.4 µM [inhibitor, single point]
Cc1onc(-c2ccccc2)c1C(=O)Nc1ccc(S(=O)(=O)N2CCOCC2)cc1 | inactive
CCc1ccc(-c2cc(C)no2)cc1S(=O)(=O)N1CCN(c2ccccc2F)CC1 | inconclusive: 20.6 µM [inhibitor, single point]

Sorted by SMILES length (low to high): part of the list above
Structure (SMILES) | Potency
CCOc1ccc(OCCNC2CCCC2)cc1 | inactive
CCNc1nc(=S)nc(NCc2ccccc2)[nH]1 | inactive
COc1ccc(C(=O)Nc2nnc(C(F)(F)F)s2)cc1 | inconclusive: 2.31 µM [activator, partial curve]
COc1ccc(C(=O)/C=C/Nc2cc(C)on2)c(OC)c1 | inconclusive: 18.4 µM [activator, partial curve]
COc1ccc(/C=N/NC(=O)c2c(Br)cnn2C)c2ccccc12 | inactive
Cn1c(N)c(C(=O)COC(=O)CNC(=O)c2ccccc2)c(=O)n(C)c1=O | inconclusive: 20.6 µM [activator, single point]
CCc1ccc(-c2cc(C)no2)cc1S(=O)(=O)N1CCN(c2ccccc2F)CC1 | inconclusive: 20.6 µM [inhibitor, single point]
Cc1onc(-c2ccccc2)c1C(=O)Nc1ccc(S(=O)(=O)N2CCOCC2)cc1 | inactive
O=C(c1cc([N+](=O)[O-])ccc1N1CCOCC1)N1CCN(c2ccccc2)CC1 | inconclusive: 0.651 µM [inhibitor, single point]
CCN(CC)S(=O)(=O)c1cc(NC(=O)CNc2c(C)n(C)n(-c3ccccc3)c2=O)ccc1C | inactive
O=C1/C(=C/c2ccc(N3CCOCC3)o2)SC(=Nc2ccccc2)N1CCc1c[nH]c2ccccc12 | inconclusive: 29.1 µM [inhibitor, single point]
